Pks13 thioesterase: 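Polyketide synthase Pks13, Mycobacterium tuberculosis (UniProt I6X8D2). Enzyme assay of the thioesterase domain of polyketide synthase 13; the read-out is not stated. Tested at 30 µM. The record gives no direction; the compounds picked for IC50 retests had high values, so higher reads as stronger inhibition. Size under these conditions: about 67,000 compounds, about 300 of them at 50% or above in at least one test.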
CoaBC: 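Coenzyme A biosynthesis protein CoaBC, Mycobacterium tuberculosis (UniProt P9WNZ1). Enzyme assay of CoaBC with a phosphate dye (Biomol Green) read at 650 nm. Tested at 30 µM. Direction is inferred from only a few compounds that gave an IC50; most scored high, so higher reads as stronger inhibition. Most strong results did not repeat in a second test. About 67,000 compounds were tested under these conditions; 0.06% (about 40) showed 50% or more at least once.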
Leishmania in macrophages: 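Cell assay of Leishmania donovani living inside macrophages; the read-out is not stated. Concentration: 30 µM. The record gives no direction; compounds that gave an IC50 in retests scored well above the rest, so higher reads as stronger inhibition. Of about 69,000 compounds tested this way, about 1,000 (1.5%) reached 50% or more in at least one test.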
MtTrpRS: 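Tryptophan-tRNA ligase, Mycobacterium tuberculosis (UniProt P9WFT3). Enzyme assay of tryptophanyl-tRNA synthetase; the read-out is not stated. Compounds at 10 µM. Direction is not recorded; retested compounds ran higher, which suggests that high means inhibition. Size under these conditions: about 65,000 compounds, about 64 of them at 50% or above in at least one test.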

Chains of the proteins cited; added tags and fusions are not shown.
UniProt I6X8D2, whole entry: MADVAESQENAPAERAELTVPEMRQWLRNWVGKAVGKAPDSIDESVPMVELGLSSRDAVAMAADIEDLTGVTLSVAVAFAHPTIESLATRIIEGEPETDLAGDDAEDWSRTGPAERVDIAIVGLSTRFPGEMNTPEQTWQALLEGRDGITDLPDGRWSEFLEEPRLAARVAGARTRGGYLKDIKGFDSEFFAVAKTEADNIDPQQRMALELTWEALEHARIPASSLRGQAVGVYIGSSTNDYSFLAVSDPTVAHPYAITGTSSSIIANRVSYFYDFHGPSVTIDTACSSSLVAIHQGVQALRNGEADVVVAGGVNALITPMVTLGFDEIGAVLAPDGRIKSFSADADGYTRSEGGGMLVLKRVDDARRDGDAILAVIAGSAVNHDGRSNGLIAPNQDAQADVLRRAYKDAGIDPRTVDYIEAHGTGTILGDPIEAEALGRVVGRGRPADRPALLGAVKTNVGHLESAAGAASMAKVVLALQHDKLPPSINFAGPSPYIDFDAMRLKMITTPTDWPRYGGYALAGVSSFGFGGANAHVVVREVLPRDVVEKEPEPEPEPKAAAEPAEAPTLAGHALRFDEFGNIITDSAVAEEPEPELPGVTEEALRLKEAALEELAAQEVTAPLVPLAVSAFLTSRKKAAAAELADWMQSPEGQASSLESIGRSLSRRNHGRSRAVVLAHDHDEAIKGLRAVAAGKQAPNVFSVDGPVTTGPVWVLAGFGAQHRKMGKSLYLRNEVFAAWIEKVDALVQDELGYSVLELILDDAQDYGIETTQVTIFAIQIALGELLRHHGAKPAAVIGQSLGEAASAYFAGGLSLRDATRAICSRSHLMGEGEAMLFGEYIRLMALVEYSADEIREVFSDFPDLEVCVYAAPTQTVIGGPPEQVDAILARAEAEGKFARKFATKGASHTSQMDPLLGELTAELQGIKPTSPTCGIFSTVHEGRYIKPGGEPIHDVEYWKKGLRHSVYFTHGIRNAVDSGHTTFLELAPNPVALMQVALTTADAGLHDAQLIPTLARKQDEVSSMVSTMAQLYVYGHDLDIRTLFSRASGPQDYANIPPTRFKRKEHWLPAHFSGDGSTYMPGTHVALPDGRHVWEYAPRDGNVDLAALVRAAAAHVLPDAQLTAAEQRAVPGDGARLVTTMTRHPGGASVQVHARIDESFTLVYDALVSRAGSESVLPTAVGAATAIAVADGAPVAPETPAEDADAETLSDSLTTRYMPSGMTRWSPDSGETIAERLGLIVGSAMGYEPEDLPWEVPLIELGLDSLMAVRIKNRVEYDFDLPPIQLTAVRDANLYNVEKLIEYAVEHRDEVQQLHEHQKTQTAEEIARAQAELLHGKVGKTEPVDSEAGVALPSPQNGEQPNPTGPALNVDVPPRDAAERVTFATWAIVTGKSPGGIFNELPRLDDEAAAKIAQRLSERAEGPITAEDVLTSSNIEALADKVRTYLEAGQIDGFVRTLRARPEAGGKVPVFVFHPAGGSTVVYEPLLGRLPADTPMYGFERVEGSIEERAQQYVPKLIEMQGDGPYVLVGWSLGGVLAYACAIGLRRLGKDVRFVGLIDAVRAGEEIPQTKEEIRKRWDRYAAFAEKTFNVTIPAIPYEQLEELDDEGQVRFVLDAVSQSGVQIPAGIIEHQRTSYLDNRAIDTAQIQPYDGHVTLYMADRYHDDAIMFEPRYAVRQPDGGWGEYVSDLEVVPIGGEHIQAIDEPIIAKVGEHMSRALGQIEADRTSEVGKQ
UniProt P9WNZ1, whole entry: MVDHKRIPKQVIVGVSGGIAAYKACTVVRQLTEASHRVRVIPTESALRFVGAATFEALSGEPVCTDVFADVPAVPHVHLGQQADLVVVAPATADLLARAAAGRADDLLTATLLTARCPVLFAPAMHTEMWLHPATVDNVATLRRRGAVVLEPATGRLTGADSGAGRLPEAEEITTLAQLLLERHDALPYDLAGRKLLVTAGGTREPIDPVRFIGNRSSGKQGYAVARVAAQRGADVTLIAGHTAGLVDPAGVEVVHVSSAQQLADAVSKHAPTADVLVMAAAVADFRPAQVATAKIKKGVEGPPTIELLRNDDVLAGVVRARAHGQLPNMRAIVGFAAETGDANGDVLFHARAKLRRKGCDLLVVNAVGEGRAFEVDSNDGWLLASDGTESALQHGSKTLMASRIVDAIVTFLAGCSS
UniProt P9WFT3, whole entry: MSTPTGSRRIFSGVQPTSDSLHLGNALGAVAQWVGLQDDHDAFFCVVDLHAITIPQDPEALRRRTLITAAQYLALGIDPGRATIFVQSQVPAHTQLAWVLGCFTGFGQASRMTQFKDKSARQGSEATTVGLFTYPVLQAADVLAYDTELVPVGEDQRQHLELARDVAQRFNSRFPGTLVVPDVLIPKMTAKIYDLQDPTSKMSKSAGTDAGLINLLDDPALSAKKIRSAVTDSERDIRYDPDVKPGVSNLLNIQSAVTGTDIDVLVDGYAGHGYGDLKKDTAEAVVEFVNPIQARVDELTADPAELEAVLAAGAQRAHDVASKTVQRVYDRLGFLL

The filed quantity is “Percent Effect” (%). How 0% and 100% were set is not recorded. Most values in the screen are low, and negative values occur. Compounds were drawn at random from those tested, without regard to their results. A dash means the value is not listed here; it may have been measured.

structure | Pks13 thioesterase | CoaBC | Leishmania in macrophages | MtTrpRS
CC(Cn1cccn1)NC(=O)NCCCN1CCc2ccccc21 (stereo not drawn) | -39.12% | 1.927% | -14.97% | -1.72%
CN(C)CC1(O)CCN(C(=O)Cc2ccc(Cl)c(Cl)c2)C1 (stereo not drawn) | -0.2818% | 7.198% | 1.329% | 0.7276%
CC(CNc1cncc(-n2cccn2)n1)N(C)c1ccccc1 (stereo not drawn) | - | 1.687% | 31.44% | -1.679%
O=C(c1c[nH]nn1)N1CCCC1C1CCCCC1 (stereo not drawn) | -20.66% | -5.943% | 34.69% | -0.361%
CCS(=O)(=O)N1CCCC2(CCCN2Cc2cccc(F)c2)C1 (stereo not drawn) | -13.12% | - | - | 4.167%
COc1cc(C(=O)NC(C)c2cccs2)cc2c1OCCO2 (stereo not drawn) | -6.321% | -7.393% | 11.75% | -3.229%
CC1c2ncc(COCC3CC3)n2CCN1C(=O)c1ccnn1C (stereo not drawn) | -15.69% | 8.403% | 16.71% | -1.744%
CCC(=O)N1CCN(c2nc(C)nc3c(C)nn(C)c23)CC1 | -27.11% | 17.55% | 21.41% | -0.5181%
O=C(c1cccn1-c1ccc2c(c1)OCCO2)N1CCCC1 | -5.075% | 6.446% | 7.852% | 0.5874%
Cn1ccc(C(=O)NCc2ccc(N3CCCCC3)nc2)cc1=O | -23.37% | 2.35% | 14% | 28.19%
O=C(Cc1ccsc1)N1C[C@H]2CCC[C@@]2(COCc2ccccn2)C1 | -20.97% | 2.599% | - | -
COc1cc(C)c(CN2CCc3nc4ccsc4c(=O)n3CC2)cc1C | -8.524% | 0.3717% | -10.88% | -
O=C(c1nc(=O)[nH][nH]1)N1CCC2(CCCCC2)C1 | -8.189% | -3.075% | -50.7% | -2.768%
CC(=O)Nc1cnc(-n2ccnc2)nc1 | -19.5% | 0.3764% | 21.52% | 0.552%
CC(C)Cc1n[nH]c(C2CC(=O)N(CC(C)C)C2)n1 (stereo not drawn) | -33.28% | 1.542% | 7.313% | 0.5659%
Cc1ccnc(OC[C@@]23CCO[C@@H]2CCN(c2ncc(F)cn2)C3)n1 | -30.62% | 12.42% | - | -1.623%
Cc1cccc(NS(=O)(=O)c2cc(C(=O)O)oc2C)c1Cl | -19.46% | -3.133% | 32.98% | 0.5596%
CC(C)c1nnc2n1CCN(CCC(=O)N1CCc3ccccc31)C2 | -17.38% | 6.464% | 11.51% | -2.95%
Cc1cccc(-c2nccnc2C2CCCN(C)C2)c1 (stereo not drawn) | -2.028% | 3.148% | 17.52% | -5.679%
CC(C)c1noc(CCNC(=O)N2CCN(c3cccs3)CC2)n1 | 16.71% | 6.489% | -14.62% | 2.673%
CC(C)(NC(=O)C1CCCN(C2CCCC2)C1)c1nnc(N)s1 (stereo not drawn) | 5.942% | -8.351% | -24.8% | -4.669%
CC(C)COc1cncc(NC(CO)c2ccco2)n1 (stereo not drawn) | -36.43% | 1.606% | 29.5% | 3.367%
CCCc1nc(C)cc(N2CCC3(CCC(=O)N(C4CC4)C3)CC2)n1 | - | 5.579% | 5.455% | -3.078%
Cc1ncc(C)c(N2Cc3cnn(Cc4ccc(F)cc4)c3C2)n1 | -18.47% | 10.54% | -16.68% | -1.859%
Cc1nc(CNC(=O)c2oc3ccccc3c2CN(C)C)oc1C | -25.83% | -8.678% | 31.47% | 3.271%
O=C(O)C(F)(F)F.O=C(O)C(F)(F)F.[H][C@]12C[C@@H](CN3CCCC3)N(C)[C@@]1([H])CCN(C(=O)c1cc(C)oc1C)C2 | - | - | 38.19% | -
Cc1cc(C(=O)NCCN2CCCCCC2)nn1C(C)(C)C | -22.71% | -3.89% | -48.08% | -0.7651%
O=C(O)C(F)(F)F.O=C(O)C(F)(F)F.[H][C@@]12COC[C@]1(CNC(=O)c1ccno1)CN(Cc1ccncc1)C2 | - | - | 17.41% | -
Cn1cc(C(=O)N2CCN(Cc3cscn3)CC2)ccc1=O | -15.68% | 4.28% | 17.59% | -0.5698%
CC(Oc1ccc(F)c(F)c1)C(=O)N(CC(N)=O)C1CCCC1 (stereo not drawn) | -9.143% | -0.6061% | -10.08% | 0.1347%
O=C(CCN1CCCC1=O)Nc1cnn(-c2ccccc2Cl)c1 | -12.61% | 5.357% | -0.3626% | -3.365%
CCc1nnc(CN(C)C(=O)CN2CC(c3ccccc3)CC2=O)o1 (stereo not drawn) | -27.06% | 5.221% | -5.657% | -0.6369%
O=C1CCCN1Cc1ncn2c1CN(C(=O)NC1CCCCC1)CCC2 | 29.04% | 0.4847% | -20.25% | 4.181%
[H][C@]12CCCCN1CCC[C@H]2CCC(=O)NCCc1n[nH]c(=O)n1C | - | - | 8.96% | -
CC[C@@H](Cn1ncc2ccccc2c1=O)NC(=O)c1cnccn1 | 1.806% | -6.994% | 1.848% | -3.618%
CS(=O)(=O)Cc1noc(CN2CCc3c(Cl)cccc3C2)n1 | -13.79% | -1.408% | -17.99% | -0.5141%
CCc1cnc(CN(C)C(=O)NC2CCN(CC3CC3)C2)s1 (stereo not drawn) | 4.489% | -0.2439% | -20.96% | 1.868%
O=C(NCc1ccnc(-n2cccn2)c1)C1CC(=O)N(CC2CC2)C1 (stereo not drawn) | -1.726% | 2.872% | 10.7% | -1.881%
CCN1CCN(c2ccc(C(=O)NCCn3ccnc3)cc2F)CC1 | -12.6% | 0.7371% | 18.57% | -3.211%
CN1CCN(C(=O)[C@H]2C[C@@H]3CN(c4ncc(F)cn4)C[C@@H]3N2C)CC1 | -4.388% | -0.7246% | - | -1.455%

Once more, the final 5:

| structure | Pks13 thioesterase | CoaBC | Leishmania in macrophages | MtTrpRS |
|---|---|---|---|---|
| `CS(=O)(=O)Cc1noc(CN2CCc3c(Cl)cccc3C2)n1` | -13.79% | -1.408% | -17.99% | -0.5141% |
| `CCc1cnc(CN(C)C(=O)NC2CCN(CC3CC3)C2)s1` (stereo not drawn) | 4.489% | -0.2439% | -20.96% | 1.868% |
| `O=C(NCc1ccnc(-n2cccn2)c1)C1CC(=O)N(CC2CC2)C1` (stereo not drawn) | -1.726% | 2.872% | 10.7% | -1.881% |
| `CCN1CCN(c2ccc(C(=O)NCCn3ccnc3)cc2F)CC1` | -12.6% | 0.7371% | 18.57% | -3.211% |
| `CN1CCN(C(=O)[C@H]2C[C@@H]3CN(c4ncc(F)cn4)C[C@@H]3N2C)CC1` | -4.388% | -0.7246% | - | -1.455% |

From ChEMBL document CHEMBL3988442, “University of Dundee, Small-Polar-MMV Screening Library” (2021).